This passage reports binding results from article PMC2811153.

Chains of the proteins cited; added tags and fusions are not shown.
UniProt P22216: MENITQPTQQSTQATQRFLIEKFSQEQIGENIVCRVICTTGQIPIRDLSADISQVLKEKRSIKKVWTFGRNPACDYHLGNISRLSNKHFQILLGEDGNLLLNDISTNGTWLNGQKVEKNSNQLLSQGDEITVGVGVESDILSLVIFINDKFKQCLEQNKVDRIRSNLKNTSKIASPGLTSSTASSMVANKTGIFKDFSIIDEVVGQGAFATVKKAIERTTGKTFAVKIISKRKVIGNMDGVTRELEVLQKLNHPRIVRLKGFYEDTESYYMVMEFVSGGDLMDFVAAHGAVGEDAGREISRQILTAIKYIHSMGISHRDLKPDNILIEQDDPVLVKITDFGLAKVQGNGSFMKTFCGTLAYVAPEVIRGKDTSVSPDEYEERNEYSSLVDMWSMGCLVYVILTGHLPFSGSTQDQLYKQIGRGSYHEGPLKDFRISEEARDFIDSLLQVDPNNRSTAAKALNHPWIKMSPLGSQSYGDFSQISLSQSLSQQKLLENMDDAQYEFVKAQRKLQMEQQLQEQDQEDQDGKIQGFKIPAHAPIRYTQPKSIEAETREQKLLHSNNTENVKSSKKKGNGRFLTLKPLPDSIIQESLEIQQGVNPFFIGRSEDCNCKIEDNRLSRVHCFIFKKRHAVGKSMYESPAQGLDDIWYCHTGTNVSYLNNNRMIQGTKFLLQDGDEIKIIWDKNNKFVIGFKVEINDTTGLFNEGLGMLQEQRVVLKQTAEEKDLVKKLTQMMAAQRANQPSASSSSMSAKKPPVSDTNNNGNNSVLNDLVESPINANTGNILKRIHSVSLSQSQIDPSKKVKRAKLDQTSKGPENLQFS

Assay [1] concerns the target Rad53 (S. cerevisiae (endogenous in yeast)) (UniProt P22216). The experiment in a line: co-IP; Rad53 precipitated from yeast lysates with polyclonal DAB001 on protein A Dynabeads; cdc13-1 (damaged) or CDC13 cells at 32°C, then galactose to induce blank, HA-CDC5 or CDC14-Pk; rad9Δ and rad53Δ control strains; Western blot. (A western blot detects proteins with antibodies after separation by electrophoresis.)

For assay [2] the target is unchanged. Briefly: co-IP; unpublished data: kinase-dead HA-cdc5-K110A immunoprecipitated with Rad53 from yeast.

These are yes or no findings as the source states them, for the method shown. In cells and extracts the contact can be indirect. Some binding calls cover weakened binding; strength is not graded here. Tags and fused reporters may be left off the sequences shown.

B1: HA-Cdc5 (enzyme, UniProt P32562 1-705)
chain: MSLGPLKAINDKQLNTRSKLVHTPIKGNTADLVGKENHFKQTKRLDPNNDHHHQPAQKKKREKLSALCKTPPSLIKTRGKDYHRGHFLGEGGFARCFQIKDDSGEIFAAKTVAKASIKSEKTRKKLLSEIQIHKSMSHPNIVQFIDCFEDDSNVYILLEICPNGSLMELLKRRKVLTEPEVRFFTTQICGAIKYMHSRRVIHRDLKLGNIFFDSNYNLKIGDFGLAAVLANESERKYTICGTPNYIAPEVLMGKHSGHSFEVDIWSLGVMLYALLIGKPPFQARDVNTIYERIKCRDFSFPRDKPISDEGKILIRDILSLDPIERPSLTEIMDYVWFRGTFPPSIPSTVMSEAPNFEDIPEEQSLVNFKDCMEKSLLLESMSSDKIQRQKRDYISSIKSSIDKLEEYHQNRPFLPHSLSPGGTKQKYKEVVDIEAQRRLNDLAREARIRRAQQAVLRKELIATSTNVIKSEISLRILASECHLTLNGIVEAEAQYKMGGLPKSRLPKIKHPMIVTKWVDYSNKHGFSYQLSTEDIGVLFNNGTTVLRLADAEEFWYISYDDREGWVASHYLLSEKPRELSRHLEVVDFFAKYMKANLSRVSTFGREEYHKDDVFLRRYTRYKPFVMFELSDGTFQFNFKDHHKMAISDGGKLVTYISPSHESTTYPLVEVLKYGEIPGYPESNFREKLTLIKEGLKQKSTIVTVD
Turning to B1, the binding entry in assay [1] was “binds”.

B2: HA-cdc5-K110A (enzyme, UniProt P32562 1-705)
chain: MSLGPLKAINDKQLNTRSKLVHTPIKGNTADLVGKENHFKQTKRLDPNNDHHHQPAQKKKREKLSALCKTPPSLIKTRGKDYHRGHFLGEGGFARCFQIKDDSGEIFAAATVAKASIKSEKTRKKLLSEIQIHKSMSHPNIVQFIDCFEDDSNVYILLEICPNGSLMELLKRRKVLTEPEVRFFTTQICGAIKYMHSRRVIHRDLKLGNIFFDSNYNLKIGDFGLAAVLANESERKYTICGTPNYIAPEVLMGKHSGHSFEVDIWSLGVMLYALLIGKPPFQARDVNTIYERIKCRDFSFPRDKPISDEGKILIRDILSLDPIERPSLTEIMDYVWFRGTFPPSIPSTVMSEAPNFEDIPEEQSLVNFKDCMEKSLLLESMSSDKIQRQKRDYISSIKSSIDKLEEYHQNRPFLPHSLSPGGTKQKYKEVVDIEAQRRLNDLAREARIRRAQQAVLRKELIATSTNVIKSEISLRILASECHLTLNGIVEAEAQYKMGGLPKSRLPKIKHPMIVTKWVDYSNKHGFSYQLSTEDIGVLFNNGTTVLRLADAEEFWYISYDDREGWVASHYLLSEKPRELSRHLEVVDFFAKYMKANLSRVSTFGREEYHKDDVFLRRYTRYKPFVMFELSDGTFQFNFKDHHKMAISDGGKLVTYISPSHESTTYPLVEVLKYGEIPGYPESNFREKLTLIKEGLKQKSTIVTVD
Turning to B2, the binding result in assay [2] is recorded as “binds”.
